## Primary screen of a compound library

Measurements from “University of Dundee, Small-Polar-MMV Screening Library” (2021), ChEMBL document CHEMBL3988442.

Mtb growth Cornell: 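Whole-cell assay for inhibitors of Mycobacterium tuberculosis growth, labelled Cornell in the record; the read-out is not stated. The concentration is filed as 10 mM, unlikely as a test dose, so the dose is not known. The record gives no direction; compounds strong in two other growth screens of this library score well above the rest, so higher reads as stronger inhibition. About 53,000 compounds were tested under these conditions; 1.7% (about 900) showed 50% or more at least once.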
Mtb heat-shock: 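Assay on Mycobacterium tuberculosis, filed only as a heat shock assay from Cornell; the read-out is not stated. The concentration is filed as 10 mM, unlikely as a test dose, so the dose is not known. Direction is inferred from retests: higher values go with stronger inhibition. About 69,000 compounds were tested under these conditions; 1.4% (about 930) showed 50% or more at least once.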

Each number is a percent effect as filed.
The record does not define 0% and 100%; most values in the screen are far below 50% and negative numbers occur (in some assays of this library far below -100).
Compounds were drawn at random from those tested, without regard to their results.
A dash means the value is not listed here; it may have been measured.

- O=C(O)C(F)(F)F.O=C(c1ccoc1)N1CCO[C@]2(CCC[C@H]2COCc2cccnc2)C1 | Mtb growth Cornell: 22.67%; Mtb heat-shock: -43.26%
- CCn1cnnc1CNC(=O)N1CCC(C(=O)NC)CC1 | Mtb heat-shock: -12.72%
- CN1CCN(C(=O)N2CCC3(CCCN(C4CCOCC4)C3=O)C2)CC1 (configuration not stated) | Mtb growth Cornell: 24.78%; Mtb heat-shock: -1.09%
- CCC1(C(=O)O)CCCN(C(=O)c2ccc(N3CCN(C)CC3)cc2)C1 (configuration not stated) | Mtb growth Cornell: -8.143%; Mtb heat-shock: -23.62%
- CN(C)C(=O)C1CN(c2ncccn2)CCN1C (configuration not stated) | Mtb growth Cornell: -26.24%; Mtb heat-shock: -10.03%
- CN1CCC(Oc2ccc(NC(=O)c3cccc(Cl)c3)cc2)CC1 | Mtb growth Cornell: 28.16%; Mtb heat-shock: -17.03%
- CC(C)n1c2ccccc2c2c1cc(C(=O)N(C)C)n2C(=O)N(C)C | Mtb growth Cornell: 9.368%; Mtb heat-shock: 11.26%
- Cc1nc(C)n(CC2CCCN(Cc3cccc(C(N)=O)c3)C2)n1 (configuration not stated) | Mtb growth Cornell: 26.03%; Mtb heat-shock: -6.775%
- Cc1c(C(=O)NCCCS(C)(=O)=O)cccc1-c1ccccn1 | Mtb growth Cornell: 4.666%; Mtb heat-shock: -3.29%
- CCn1ccnc1CN1CCCN(C(=O)c2cc(C)nn2CC)CC1 | Mtb heat-shock: -9.555%
- COCCN1CCC(NC(=O)NCC2(c3ccccc3)CC2)C1 (configuration not stated) | Mtb growth Cornell: 9.101%; Mtb heat-shock: -10.23%
- O=C1C(NCc2nnc3n2CCCC3)CCN1c1ccccc1Cl (configuration not stated) | Mtb heat-shock: 2.048%
- COc1ccc(CN2CCC3(CC2)NC(=O)CC3c2cnn(C)c2)cc1.O=C(O)C(F)(F)F (configuration not stated) | Mtb growth Cornell: -4.624%; Mtb heat-shock: -26.9%
- COc1ccc(CNCc2ccnc(N3CCOCC3)c2)c(OC)c1 | Mtb growth Cornell: 8.621%; Mtb heat-shock: 9.519%
- Fc1ccc(C2CCCN2Cc2nc(Cc3ccccc3F)no2)cc1 (configuration not stated) | Mtb growth Cornell: 36.64%; Mtb heat-shock: 1.237%
- Cl.O=C(Nc1cccc(CNCc2csc(Br)c2)c1)C1CC1 | Mtb growth Cornell: 30%; Mtb heat-shock: 28.1%
- Cc1ccccc1CN(CCN(C)C)C(=O)c1ccc2nccn2c1 | Mtb heat-shock: -9.056%
- Clc1cccc(C(CNc2ncccn2)N2CCOCC2)c1 (configuration not stated) | Mtb growth Cornell: -11.62%; Mtb heat-shock: -15.84%
- Cc1nc(C)n(CC2CCCN2Cc2nc3ccccc3c(=O)[nH]2)n1 (configuration not stated) | Mtb growth Cornell: -38.81%; Mtb heat-shock: -31.26%
- Cc1noc(CNC(=O)c2ccccc2-n2cc(CN)cn2)n1 | Mtb growth Cornell: -15.82%; Mtb heat-shock: 28.55%
- c1cnnc(N2CCCC2CNCc2nc(-c3ccoc3)no2)c1 (configuration not stated) | Mtb heat-shock: 4.261%
- CN(C(=O)Nc1ccncc1)C1CCN(c2ccccc2)C1=O (configuration not stated) | Mtb heat-shock: -4.01%
- Cc1ccc2oc(C(=O)N3CCCC(n4ccnc4C)C3)cc2n1 (configuration not stated) | Mtb heat-shock: 7.01%
- Cc1ccc(CNC(=O)NCc2cccnc2N(C)C)s1 | Mtb growth Cornell: -34.57%; Mtb heat-shock: -12.35%
- Cc1cc(Nc2ccc3c(c2)CC(=O)N3)nc(C2CC2)n1 | Mtb growth Cornell: 17.35%; Mtb heat-shock: -14.67%
- CCN1C(=O)C2(CCCCC2)NC1c1cc(C#N)n(C)c1C (configuration not stated) | Mtb heat-shock: 7.367%
- CN(Cc1ccn[nH]1)C(=O)CCC(=O)NC1CCCC1 | Mtb growth Cornell: -18.84%; Mtb heat-shock: 2.566%
- COc1cc(CN(C)C(=O)NCCNC(=O)C2CC2)ccc1SC | Mtb heat-shock: -3.339%
- CC(=O)N1CCN(Cc2cccs2)CC2(CC(=O)N(C)C2)C1.O=C(O)C(F)(F)F (configuration not stated) | Mtb growth Cornell: 12.81%; Mtb heat-shock: -4.761%
- COc1ccc(NC(=O)Cn2cc(-c3ccccc3)ncc2=O)cn1 | Mtb growth Cornell: 2.374%; Mtb heat-shock: 21.91%
- [H][C@@]12CCCCN(C(=O)c3cnccn3)[C@]1([H])[C@@H](c1ccccc1)CCN2C | Mtb growth Cornell: 5.678%; Mtb heat-shock: 5.726%
- Cl.Cn1ncc2c1CCCC2NCc1cccc(F)c1 (configuration not stated) | Mtb heat-shock: -8.156%
- Cc1cnn(CC2CCCN2Cc2nnc(-c3ccccc3)o2)c1 (configuration not stated) | Mtb growth Cornell: 13.22%; Mtb heat-shock: 0.856%
- CS(=O)(=O)NCCCNC(=O)NCc1ccccc1 | Mtb growth Cornell: 1.658%; Mtb heat-shock: -1.482%
- O=C(NCCOc1cccc(Cl)c1Cl)N1CCC2(CC1)OCCO2 | Mtb growth Cornell: 11.43%; Mtb heat-shock: -23.18%
- COc1ccc(CNC(=O)c2ccc(=O)n(C)c2)cc1C | Mtb growth Cornell: -1.813%; Mtb heat-shock: 6.539%
- NC(=O)CCN1C(=O)CC(Cc2ccc(F)cc2)C1=O (configuration not stated) | Mtb growth Cornell: 8.734%; Mtb heat-shock: -31.32%
- O=C(O)C(F)(F)F.[H][C@]12C[C@@H](Cn3cncn3)N(C(C)=O)[C@@]1([H])CCN(CC1CC1)C2 | Mtb growth Cornell: 12.5%; Mtb heat-shock: -12.76%
- O=C(O)C(F)(F)F.[H][C@@]12C[C@H](C(=O)N3CCN(C)CC3)[C@@]([H])(CN(S(=O)(=O)CC(C)C)C1)O2 | Mtb growth Cornell: -0.6926%; Mtb heat-shock: 21.15%
- Cc1ccc2c(n1)N(CC1CC1)CCN(C(=O)NC1CC1)C2.O=C(O)C(F)(F)F | Mtb growth Cornell: 10.5%; Mtb heat-shock: -19.55%
- CCC(C(=O)Nc1ccc(-c2nc(C)n[nH]2)cc1)N1CCCC1=O (configuration not stated) | Mtb growth Cornell: 24.22%; Mtb heat-shock: 2.751%
- Cc1ccc(N2CCC3(CCN(C(=O)c4ccccn4)CC3)CC2)nn1.O=C(O)C(F)(F)F.O=C(O)C(F)(F)F | Mtb heat-shock: -19.27%
- Cc1nc(C)n(CC2CCCN(CCOc3ccc(F)cc3)C2)n1 (configuration not stated) | Mtb growth Cornell: -18.56%; Mtb heat-shock: 3.138%

For reference, 3 entries once more:

Compound	Mtb growth Cornell	Mtb heat-shock
CS(=O)(=O)NCCCNC(=O)NCc1ccccc1	1.658%	-1.482%
c1cnnc(N2CCCC2CNCc2nc(-c3ccoc3)no2)c1 (configuration not stated)	-	4.261%
COc1ccc(CN2CCC3(CC2)NC(=O)CC3c2cnn(C)c2)cc1.O=C(O)C(F)(F)F (configuration not stated)	-4.624%	-26.9%